These results are taken from PMC10897450.

Amino acid sequences for entries named in this document (tags omitted). A change or cut given only in a name is not applied to a line headed by its entry.
UniProt P17157: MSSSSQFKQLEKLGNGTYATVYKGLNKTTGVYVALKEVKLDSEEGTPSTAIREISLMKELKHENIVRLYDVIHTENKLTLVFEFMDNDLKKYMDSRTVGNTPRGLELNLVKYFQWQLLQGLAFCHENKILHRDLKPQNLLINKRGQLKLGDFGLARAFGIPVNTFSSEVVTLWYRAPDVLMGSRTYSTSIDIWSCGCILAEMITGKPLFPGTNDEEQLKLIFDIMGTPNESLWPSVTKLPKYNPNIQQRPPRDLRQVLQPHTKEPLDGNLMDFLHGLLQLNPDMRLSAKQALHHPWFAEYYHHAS

These are yes or no findings as the source states them, for the method shown. Binding seen in cells or lysates may run through a third protein. Some binding calls cover weakened binding; strength is not graded here. Tags and fused reporters may be left off the sequences shown.

In one assay the target is T1, Whi7-GFP (S. cerevisiae) (UniProt P36167).
T1 sequence: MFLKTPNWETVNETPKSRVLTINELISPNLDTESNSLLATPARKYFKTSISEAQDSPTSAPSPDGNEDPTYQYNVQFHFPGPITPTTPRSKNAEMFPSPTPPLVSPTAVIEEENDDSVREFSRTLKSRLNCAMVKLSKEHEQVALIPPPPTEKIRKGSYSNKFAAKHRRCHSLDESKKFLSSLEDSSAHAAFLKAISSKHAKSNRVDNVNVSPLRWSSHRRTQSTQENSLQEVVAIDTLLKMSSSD
In words: co-IP; Whi7-GFP immunoprecipitated from crude yeast extracts; Pho85-HA or Pho85^E53A-HA detected by western blot in TE, NR and IP fractions. For orientation: In western blotting, separated proteins are transferred to a membrane and probed.

A further assay has as its target T2, Whi7-HA (S. cerevisiae) (UniProt P36167).
T2 sequence: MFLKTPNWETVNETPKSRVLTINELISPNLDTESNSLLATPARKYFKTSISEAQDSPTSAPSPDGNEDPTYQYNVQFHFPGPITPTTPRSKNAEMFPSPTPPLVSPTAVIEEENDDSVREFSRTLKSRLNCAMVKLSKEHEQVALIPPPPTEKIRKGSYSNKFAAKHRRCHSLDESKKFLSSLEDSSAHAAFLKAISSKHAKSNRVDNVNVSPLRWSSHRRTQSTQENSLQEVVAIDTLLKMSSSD
In words: co-IP; Whi7-HA immunoprecipitated from crude extracts of cells expressing myc-tagged Swi4; Swi4 detected by western analysis.

As to “Pho85-HA (from UniProt P17157 1-305) (enzyme)”, the binding entry with Whi7-GFP (S. cerevisiae) is given as “no binding”.

Turning to “Pho85^E53A-HA (from UniProt P17157 1-305) (enzyme)”, the binding result with Whi7-GFP (S. cerevisiae) was “binds”.

B1: myc-tagged Swi4 (protein, UniProt P25302 1-1093)
chain: MPFDVLISNQKDNTNHQNITPISKSVLLAPHSNHPVIEIATYSETDVYECYIRGFETKIVMRRTKDDWINITQVFKIAQFSKTKRTKILEKESNDMQHEKVQGGYGRFQGTWIPLDSAKFLVNKYEIIDPVVNSILTFQFDPNNPPPKRSKNSILRKTSPGTKITSPSSYNKTPRKKNSSSSTSATTTAANKKGKKNASINQPNPSPLQNLVFQTPQQFQVNSSMNIMNNNDNHTTMNFNNDTRHNLINNISNNSNQSTIIQQQKSIHENSFNNNYSATQKPLQFFPIPTNLQNKNVALNNPNNNDSNSYSHNIDNVINSSNNNNNGNNNNLIIVPDGPMQSQQQQQHHHEYLTNNFNHSMMDSITNGNSKKRRKKLNQSNEQQFYNQQEKIQRHFKLMKQPLLWQSFQNPNDHHNEYCDSNGSNNNNNTVASNGSSIEVFSSNENDNSMNMSSRSMTPFSAGNTSSQNKLENKMTDQEYKQTILTILSSERSSDVDQALLATLYPAPKNFNINFEIDDQGHTPLHWATAMANIPLIKMLITLNANALQCNKLGFNCITKSIFYNNCYKENAFDEIISILKICLITPDVNGRLPFHYLIELSVNKSKNPMIIKSYMDSIILSLGQQDYNLLKICLNYQDNIGNTPLHLSALNLNFEVYNRLVYLGASTDILNLDNESPASIMNKFNTPAGGSNSRNNNTKADRKLARNLPQKNYYQQQQQQQQPQNNVKIPKIIKTQHPDKEDSTADVNIAKTDSEVNESQYLHSNQPNSTNMNTIMEDLSNINSFVTSSVIKDIKSTPSKILENSPILYRRRSQSISDEKEKAKDNENQVEKKKDPLNSVKTAMPSLESPSSLLPIQMSPLGKYSKPLSQQINKLNTKVSSLQRIMGEEIKNLDNEVVETESSISNNKKRLITIAHQIEDAFDSVSNKTPINSISDLQSRIKETSSKLNSEKQNFIQSLEKSQALKLATIVQDEESKVDMNTNSSSHPEKQEDEEPIPKSTSETSSPKNTKADAKFSNTVQESYDVNETLRLATELTILQFKRRMTTLKISEAKSKINSSVKLDKYRNLIGITIENIDSKLDDIEKDLRANA
For the molecule B1, in the assay with Whi7-HA (S. cerevisiae), the binding result is on record as “binds”.
